Results on one substance are retold here after publication PMC3491396.

Amino acid sequences for entries named in this document (tags omitted). A change or cut given only in a name is not applied to a line headed by its entry.
UniProt Q9NQB0: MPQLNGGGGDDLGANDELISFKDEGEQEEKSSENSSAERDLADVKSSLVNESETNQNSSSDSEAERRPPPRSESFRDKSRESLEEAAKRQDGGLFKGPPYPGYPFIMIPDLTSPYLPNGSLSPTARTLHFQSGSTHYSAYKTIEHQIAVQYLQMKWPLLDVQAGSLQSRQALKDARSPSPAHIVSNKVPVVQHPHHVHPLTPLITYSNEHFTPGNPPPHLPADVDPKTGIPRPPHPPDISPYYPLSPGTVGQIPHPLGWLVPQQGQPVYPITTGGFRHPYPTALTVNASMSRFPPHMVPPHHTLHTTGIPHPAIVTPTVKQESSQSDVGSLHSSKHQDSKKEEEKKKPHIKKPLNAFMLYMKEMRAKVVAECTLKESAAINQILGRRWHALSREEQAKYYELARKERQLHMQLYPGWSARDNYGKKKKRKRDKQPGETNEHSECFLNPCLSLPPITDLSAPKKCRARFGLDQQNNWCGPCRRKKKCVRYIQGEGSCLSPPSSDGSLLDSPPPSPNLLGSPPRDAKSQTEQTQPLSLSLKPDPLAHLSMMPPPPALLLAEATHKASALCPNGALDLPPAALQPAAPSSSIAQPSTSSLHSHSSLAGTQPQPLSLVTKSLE
UniProt P23771: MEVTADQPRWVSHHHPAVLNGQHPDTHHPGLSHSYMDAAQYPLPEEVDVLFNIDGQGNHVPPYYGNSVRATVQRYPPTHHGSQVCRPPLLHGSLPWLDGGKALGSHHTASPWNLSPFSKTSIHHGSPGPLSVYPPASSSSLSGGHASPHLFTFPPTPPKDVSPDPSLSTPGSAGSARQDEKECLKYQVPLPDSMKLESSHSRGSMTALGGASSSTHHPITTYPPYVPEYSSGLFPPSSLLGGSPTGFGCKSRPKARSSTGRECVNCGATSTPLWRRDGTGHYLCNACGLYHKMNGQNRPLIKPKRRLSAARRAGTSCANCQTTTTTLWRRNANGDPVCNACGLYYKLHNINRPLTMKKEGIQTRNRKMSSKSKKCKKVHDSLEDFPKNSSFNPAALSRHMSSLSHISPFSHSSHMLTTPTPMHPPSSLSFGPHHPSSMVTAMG

The assay concerns the target FLAG-tagged full-length TCF7L2 (the E-isoform) (human) (UniProt Q9NQB0). Kind of assay: co-IP; anti-FLAG M2 agarose immunoprecipitation of extracts of MCF7 cells transfected with FLAG-TCF7L2 constructs; NP-40 lysis buffer (PBS, 0.25% NP-40, 0.1% sodium deoxycholate), 4 hours at 4°C; western blot with anti-GATA3 and anti-FLAG.

No constants are given. Whether binding was seen depends on the method and setting. In cells and extracts the contact can be indirect. Binding calls can cover weak binding; strength is not graded here.

As for “GATA3 (GATA binding protein 3) (from UniProt P23771 1-443)”, the binding entry is “binds”.
